# Experimental data taken from publication PMC5740170.
# Amino acid sequences for entries named in this document (tags omitted). Residues count along the entry.
# UniProt O00206, residues 27-631: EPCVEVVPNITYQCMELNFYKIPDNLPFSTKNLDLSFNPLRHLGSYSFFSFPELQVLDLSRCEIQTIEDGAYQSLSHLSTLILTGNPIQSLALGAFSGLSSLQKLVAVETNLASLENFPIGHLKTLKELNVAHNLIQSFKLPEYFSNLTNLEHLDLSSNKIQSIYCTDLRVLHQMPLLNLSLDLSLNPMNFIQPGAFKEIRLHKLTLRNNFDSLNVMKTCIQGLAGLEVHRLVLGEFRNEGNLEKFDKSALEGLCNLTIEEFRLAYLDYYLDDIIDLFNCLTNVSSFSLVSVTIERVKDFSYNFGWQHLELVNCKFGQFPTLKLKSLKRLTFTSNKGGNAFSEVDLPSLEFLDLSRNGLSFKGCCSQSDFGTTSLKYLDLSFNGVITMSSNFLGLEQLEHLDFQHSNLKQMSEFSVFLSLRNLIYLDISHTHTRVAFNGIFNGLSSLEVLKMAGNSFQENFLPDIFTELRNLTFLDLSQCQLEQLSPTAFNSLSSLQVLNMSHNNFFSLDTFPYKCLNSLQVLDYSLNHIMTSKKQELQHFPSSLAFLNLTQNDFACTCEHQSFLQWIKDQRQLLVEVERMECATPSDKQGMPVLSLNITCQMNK
# UniProt Q9QUK6, residues 26-835: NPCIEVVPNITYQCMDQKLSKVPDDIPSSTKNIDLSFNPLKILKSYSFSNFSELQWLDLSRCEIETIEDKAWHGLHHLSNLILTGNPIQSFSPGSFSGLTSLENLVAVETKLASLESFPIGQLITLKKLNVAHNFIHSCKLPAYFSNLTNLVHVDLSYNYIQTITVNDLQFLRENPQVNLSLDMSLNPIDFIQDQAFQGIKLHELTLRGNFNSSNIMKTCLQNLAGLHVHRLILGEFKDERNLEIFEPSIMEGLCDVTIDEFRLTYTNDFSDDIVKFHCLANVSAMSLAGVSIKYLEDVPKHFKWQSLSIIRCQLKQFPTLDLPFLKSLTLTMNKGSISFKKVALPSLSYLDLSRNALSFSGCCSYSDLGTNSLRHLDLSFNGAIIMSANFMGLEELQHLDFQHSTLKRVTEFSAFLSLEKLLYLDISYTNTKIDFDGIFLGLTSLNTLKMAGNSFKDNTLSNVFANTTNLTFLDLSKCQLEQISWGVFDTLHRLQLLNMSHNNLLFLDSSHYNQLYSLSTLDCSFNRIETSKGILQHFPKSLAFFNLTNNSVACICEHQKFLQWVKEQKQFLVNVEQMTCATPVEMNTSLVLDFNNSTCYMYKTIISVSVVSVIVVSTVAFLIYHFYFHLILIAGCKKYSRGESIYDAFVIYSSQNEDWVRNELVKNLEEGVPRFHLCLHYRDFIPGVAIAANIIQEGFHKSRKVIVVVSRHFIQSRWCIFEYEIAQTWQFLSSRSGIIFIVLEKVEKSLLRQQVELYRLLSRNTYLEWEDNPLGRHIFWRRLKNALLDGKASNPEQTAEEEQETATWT
# No constants are given. Whether binding was seen depends on the method and setting. For some assays here: Binding seen in cells or lysates may run through a third protein. Some binding calls cover weakened binding; strength is not graded here.
# Columns and labels:
# [1] = target: T1, Human MD2 (amino acids 19-160) (human) (UniProt Q9Y6Y9); assay: SEC; Superdex 200; hTLR4–MD2 complex alone, co-expressed in High Five cells and co-purified by the protein A tag on MD2 (tag cleaved); elution against standard proteins; both purified
# T1 sequence: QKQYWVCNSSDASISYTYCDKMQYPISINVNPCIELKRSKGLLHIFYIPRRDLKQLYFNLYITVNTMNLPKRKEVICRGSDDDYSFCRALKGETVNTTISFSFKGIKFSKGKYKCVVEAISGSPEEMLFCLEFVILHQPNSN
# [2] = target: T2, NADPH oxidase 2 (NOX2), mouse, endogenous in RAW 264.7 macrophages (mouse (endogenous in RAW 264.7)) (UniProt Q61093); assay: co-IP; RAW 264.7 cells stimulated with 200 uM palmitate for 1 h; immunoprecipitation with 10 ug anti-NOX2 from cytosolic fractions, protein A/G agarose, blot for TLR4
# T2 sequence: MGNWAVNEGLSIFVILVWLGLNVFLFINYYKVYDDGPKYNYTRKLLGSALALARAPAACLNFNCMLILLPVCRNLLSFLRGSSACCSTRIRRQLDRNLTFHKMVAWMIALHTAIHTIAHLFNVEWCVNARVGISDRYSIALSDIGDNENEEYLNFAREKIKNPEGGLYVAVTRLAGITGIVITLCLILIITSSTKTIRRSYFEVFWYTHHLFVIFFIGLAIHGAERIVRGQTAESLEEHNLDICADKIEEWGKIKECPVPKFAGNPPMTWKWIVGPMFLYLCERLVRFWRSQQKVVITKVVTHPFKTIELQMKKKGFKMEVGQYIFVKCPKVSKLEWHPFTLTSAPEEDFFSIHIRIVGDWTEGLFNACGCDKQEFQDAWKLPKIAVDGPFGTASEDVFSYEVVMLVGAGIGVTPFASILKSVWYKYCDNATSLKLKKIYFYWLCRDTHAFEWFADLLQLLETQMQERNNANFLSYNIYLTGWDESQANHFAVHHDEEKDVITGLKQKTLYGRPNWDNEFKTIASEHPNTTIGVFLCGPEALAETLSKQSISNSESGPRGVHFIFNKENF
Substance,binding [1],binding [2]
Human TLR4 (amino acids 27-631) (from UniProt O00206 27-631) (domain or fragment),binds,–
"Toll-like receptor 4 (TLR4), mouse, endogenous in RAW 264.7 macrophages (from UniProt Q9QUK6 26-835)",–,no binding
